Assay results published in publication PMC6684635.
Results are given in words; binding and its absence hold for the method and conditions named. Binding seen in cells or lysates may run through a third protein. Where a sequence is shown, tags or fusion partners need not be part of it.

T1: His6-HaloTag-syt-17 (UniProt Q62807)
T1 sequence: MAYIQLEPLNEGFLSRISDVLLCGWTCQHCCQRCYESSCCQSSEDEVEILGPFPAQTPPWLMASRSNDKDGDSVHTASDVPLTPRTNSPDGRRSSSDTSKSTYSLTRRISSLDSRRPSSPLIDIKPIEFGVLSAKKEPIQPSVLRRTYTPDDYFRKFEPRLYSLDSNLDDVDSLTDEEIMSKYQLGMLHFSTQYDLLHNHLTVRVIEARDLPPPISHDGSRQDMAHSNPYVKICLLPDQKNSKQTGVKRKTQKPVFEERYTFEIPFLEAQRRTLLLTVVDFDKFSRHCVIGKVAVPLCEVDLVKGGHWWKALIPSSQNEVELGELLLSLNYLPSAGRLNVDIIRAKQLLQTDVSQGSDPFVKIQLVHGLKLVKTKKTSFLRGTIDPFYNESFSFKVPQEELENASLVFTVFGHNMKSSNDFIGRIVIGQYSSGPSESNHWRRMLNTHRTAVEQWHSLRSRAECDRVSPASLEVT


Target: T1, His6-HaloTag-syt-17
Assay: condition: 45 μg bait protein in 6 ml of clarified lysate; pull-down; Halo-tagged bait on HaloLink resin (45 μg bait protein) in 6 ml clarified mouse brain lysate (Triton X-100), 3 h at 4 °C; eluates assayed by Western blot for syntaxin-5 or syntaxin-13; only the target purified

binding | Binder
no binding | syntaxin-5 (protein, UniProt Q8K1E0 1-355) MIPRKRYGSKNTDQGVYLGLSKTQVLSPATAISSSSDSTPLPTPVALVPSPPDTMSCRDRTQEFQSACKSLQSRQNGIQTSKPALHAARQCSEFTLMARRIGKDLSNTFAKLEKLTILAKRKSLFDDKAVEIEELTYIIKQDINSLNKQIAQLQDFVRAKGSQSGRHLQTHSNTIVVSLQSKLASMSNDFKSVLEVRTENLKQQRNRREQFSRAPVSALPLAPNNLGGGPIILGAESRASRDVAIDMMDPRTSQQLQLIDEQDSYIQSRADTMQNIESTIVELGSIFQQLAHMVKEQEETIQRIDENVLGAQLDVEAAHSEILKYFQSVTSNRWLMVKIFLILIVFFIIFVVFLA
no binding | syntaxin-13 (protein, UniProt Q9ER00 1-274) MSYGPLDMYRNPGPSGPQPRDFNSIIQTCSGNIQRISQATAQIKNLMSQLGTKQDSSKLQENLQQLQHSTNQLAKETNELLKELGSLPLPLSASEQRQQKLQKERLMNDFSSALNNFQVVQRKVSEKEKESIARARAGSRLSAEDRQREEQLVSFDSHEEWNQMQSQEEEAAITEQDLELIKERETAIRQLEADILDVNQIFKDLAMMIHDQGDLIDSIEANVESSEVHVERATDQLQRAAYYQKKSRKKMCILVLVLSVIVTVLVVVIWVASK
